Experimental data: PubChem BioAssay AID504791 (Drosophila RNAi Screening Center, 2011)
The screen tested about 23,000 reagents; this is a random part of those with a known target gene and a result. In the full data, 199 (0.86%) were called active. 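Plate-scaled ratios behind the calls are not deposited; printed light signals are raw; many rows marked increased or decreased are still called inactive.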 Entries without a mark were called inactive. Names joined by + are all predicted targets of the reagent. Reagent sequences are not shown. The record does not give: the direction of the score.

Test: 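Factors in Argonaute-based small RNA production and activity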 (primary screen)
System: Drosophila S2-derived reporter cells
Knock-down reagent: long dsRNA against Drosophila genes, about 150-250 ng dsRNA per well (siRNA assay); about 80-120 ng (miRNA assay)
Timing: about 5 days (siRNA assay); about 4 days (miRNA assay)
Treatment: copper sulfate induction of reporters: 25 µM (siRNA assay); 200 mM stated (miRNA assay), 1-2 days before reading
Measured: 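Dual luciferase assay: Renilla to firefly signal ratio in each well, scaled to the mean ratio of its plate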
Units: stable assay Renilla, run 1 in luminescence; stable assay firefly, run 1 in luminescence
Rule for the call: 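a well was a first-pass pick when its plate-scaled ratio rose above 1.5 (siRNA assay) or 1.6 (miRNA assay), or dropped below 0.6; a gene counted only if two separate dsRNAs agreed on retest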

Silencing of Osi6 (Osiris 6) [SID104191920] came out at: stable assay Renilla, run 1 = 6924; stable assay firefly, run 1 = 4.04e5.
Silencing of CG30338 [SID104184958] came out at: stable assay Renilla, run 1 = 5540; stable assay firefly, run 1 = 4.31e5.
Depletion of mtm (myotubularin) [SID104183368] gave: stable assay Renilla, run 1 = 32236; stable assay firefly, run 1 = 5.18e5.
CG13590 [SID104184018] showed stable assay Renilla, run 1 = 4811; stable assay firefly, run 1 = 6.34e5.
GNBP2 (Gram-negative bacteria binding protein 2) [SID104190196] scored stable assay Renilla, run 1 = 8691; stable assay firefly, run 1 = 2.96e5.
Samtor (S-adenosylmethionine sensor upstream of TORC1) [SID104184182] showed stable assay Renilla, run 1 = 44170; stable assay firefly, run 1 = 1.61e6.
ppk27 (pickpocket 27) [SID104187960] gave stable assay Renilla, run 1 = 5914; stable assay firefly, run 1 = 3.98e5.
After knock-down of ppk27 (pickpocket 27) [SID104201747], the screen gave stable assay Renilla, run 1 = 8811; stable assay firefly, run 1 = 5.61e5.
For wdb (widerborst) [SID104193955], the entry reads stable assay Renilla, run 1 = 6928; stable assay firefly, run 1 = 5.36e5.
After knock-down of mthl2 (methuselah-like 2) [SID104190079], the screen gave stable assay Renilla, run 1 = 6487; stable assay firefly, run 1 = 3.58e5.
Knock-down of Ntf-2r (Nuclear transport factor-2-related) [SID104181811] gave: stable assay Renilla, run 1 = 8478; stable assay firefly, run 1 = 4.43e5.
Knock-down of PGRP-LB (Peptidoglycan recognition protein LB) [SID104194718] gave: stable assay Renilla, run 1 = 7454; stable assay firefly, run 1 = 5.01e5.
Knock-down of up (upheld) [SID104200174] gave: miRNA reporter change reporter ratio lowered past the hit cutoff (active); stable assay Renilla, run 1 = 7330; stable assay firefly, run 1 = 5.20e5.
After knock-down of CG7139 [SID104191403], the screen gave stable assay Renilla, run 1 = 8265; stable assay firefly, run 1 = 2.22e5.
Pgant35A (Polypeptide N-acetylgalactosaminyltransferase 35A) [SID104183349] showed stable assay Renilla, run 1 = 5036; stable assay firefly, run 1 = 3.80e5.
Against Hus1-like [SID104192145] the deposit lists stable assay Renilla, run 1 = 7275; stable assay firefly, run 1 = 4.47e5.

Targets listed so far whose gene name starts with C or c (3):
CG30338 [SID104184958] — stable assay Renilla, run 1: 5540; stable assay firefly, run 1: 4.31e5
CG13590 [SID104184018] — stable assay Renilla, run 1: 4811; stable assay firefly, run 1: 6.34e5
CG7139 [SID104191403] — stable assay Renilla, run 1: 8265; stable assay firefly, run 1: 2.22e5

Additional entries follow:
With knock-down of Mrp4 (Multidrug resistance protein 4) [SID104194723], the record shows stable assay Renilla, run 1 = 5871; stable assay firefly, run 1 = 3.96e5.
Act42A (Actin 42A) [SID104184627] gave stable assay Renilla, run 1 = 5415; stable assay firefly, run 1 = 4.21e5.
spdi (split discs) [SID104198279] scored stable assay Renilla, run 1 = 8153; stable assay firefly, run 1 = 4.43e5.
After knock-down of spdi (split discs) [SID104198280] the results were stable assay Renilla, run 1 = 7511; stable assay firefly, run 1 = 3.85e5.
After knock-down of stck (steamer duck) [SID104196862], the screen gave stable assay Renilla, run 1 = 7227; stable assay firefly, run 1 = 3.91e5.
CG14186 [SID104189977] showed stable assay Renilla, run 1 = 10588; stable assay firefly, run 1 = 4.38e5.
Knock-down of nullo [SID104198599] came out at: stable assay Renilla, run 1 = 5879; stable assay firefly, run 1 = 3.23e5.
After knock-down of PCB (Pyruvate carboxylase) [SID104185731] the results were stable assay Renilla, run 1 = 8868; stable assay firefly, run 1 = 3.80e5.
Against phtf [SID104184815], the values are stable assay Renilla, run 1 = 7586; stable assay firefly, run 1 = 1.54e6.
Against Rab10 [SID104200364] the deposit lists miRNA reporter change reporter ratio raised past the hit cutoff; stable assay Renilla, run 1 = 6419; stable assay firefly, run 1 = 3.23e5.
For Mtr4 (Mtr4 helicase) [SID104183352], the entry reads miRNA reporter change reporter ratio raised past the hit cutoff; stable assay Renilla, run 1 = 9291; stable assay firefly, run 1 = 1.54e6.
CG17770 + Acam [SID104193902] scored stable assay Renilla, run 1 = 7999; stable assay firefly, run 1 = 3.61e5.
Knock-down of CG17770 + Acam [SID104195056] came out at: stable assay Renilla, run 1 = 6664; stable assay firefly, run 1 = 3.30e5.
